Measurements as given in the supplement of paper PMC11732987, “Enantioselective OTUD7B fragment discovery through chemoproteomics screening and high-throughput optimisation” (Communications Chemistry, 2025).
Some of the results follow. The data scatter; read single values as rough.

The chains behind the UniProt entries cited, without tags or fusion partners. Where a name states a change or a piece, a line headed by the entry shows the natural chain unless it says otherwise. Residues count along the entry.
UniProt P06756, whole entry, looked up: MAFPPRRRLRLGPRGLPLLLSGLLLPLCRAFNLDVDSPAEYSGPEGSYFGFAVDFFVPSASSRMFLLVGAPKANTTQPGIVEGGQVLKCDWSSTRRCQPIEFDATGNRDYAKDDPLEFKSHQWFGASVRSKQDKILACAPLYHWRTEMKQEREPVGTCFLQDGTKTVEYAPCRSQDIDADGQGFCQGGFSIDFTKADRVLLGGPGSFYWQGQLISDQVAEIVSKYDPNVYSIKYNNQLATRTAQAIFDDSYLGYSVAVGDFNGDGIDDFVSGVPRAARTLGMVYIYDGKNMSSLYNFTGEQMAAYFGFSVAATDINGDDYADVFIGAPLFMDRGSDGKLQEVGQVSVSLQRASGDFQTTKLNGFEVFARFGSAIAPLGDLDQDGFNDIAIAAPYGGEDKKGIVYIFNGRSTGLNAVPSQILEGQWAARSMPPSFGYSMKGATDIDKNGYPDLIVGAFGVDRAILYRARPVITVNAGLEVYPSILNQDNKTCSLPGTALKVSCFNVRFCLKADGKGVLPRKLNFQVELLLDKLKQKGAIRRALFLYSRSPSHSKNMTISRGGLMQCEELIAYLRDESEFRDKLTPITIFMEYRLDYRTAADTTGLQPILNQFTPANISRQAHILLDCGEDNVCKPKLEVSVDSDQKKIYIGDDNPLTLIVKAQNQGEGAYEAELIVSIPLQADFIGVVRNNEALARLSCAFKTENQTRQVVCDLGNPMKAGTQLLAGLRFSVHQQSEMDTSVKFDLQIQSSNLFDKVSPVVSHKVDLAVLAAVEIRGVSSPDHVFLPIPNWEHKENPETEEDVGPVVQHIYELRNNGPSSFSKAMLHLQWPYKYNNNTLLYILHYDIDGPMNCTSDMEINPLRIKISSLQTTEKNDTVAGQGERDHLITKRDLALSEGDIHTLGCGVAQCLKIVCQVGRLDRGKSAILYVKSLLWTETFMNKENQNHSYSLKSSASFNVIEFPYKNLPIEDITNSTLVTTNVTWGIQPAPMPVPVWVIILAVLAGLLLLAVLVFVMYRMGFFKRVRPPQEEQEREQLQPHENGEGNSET
UniProt Q15058, 1406-1426: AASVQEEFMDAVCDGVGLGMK
UniProt Q14573: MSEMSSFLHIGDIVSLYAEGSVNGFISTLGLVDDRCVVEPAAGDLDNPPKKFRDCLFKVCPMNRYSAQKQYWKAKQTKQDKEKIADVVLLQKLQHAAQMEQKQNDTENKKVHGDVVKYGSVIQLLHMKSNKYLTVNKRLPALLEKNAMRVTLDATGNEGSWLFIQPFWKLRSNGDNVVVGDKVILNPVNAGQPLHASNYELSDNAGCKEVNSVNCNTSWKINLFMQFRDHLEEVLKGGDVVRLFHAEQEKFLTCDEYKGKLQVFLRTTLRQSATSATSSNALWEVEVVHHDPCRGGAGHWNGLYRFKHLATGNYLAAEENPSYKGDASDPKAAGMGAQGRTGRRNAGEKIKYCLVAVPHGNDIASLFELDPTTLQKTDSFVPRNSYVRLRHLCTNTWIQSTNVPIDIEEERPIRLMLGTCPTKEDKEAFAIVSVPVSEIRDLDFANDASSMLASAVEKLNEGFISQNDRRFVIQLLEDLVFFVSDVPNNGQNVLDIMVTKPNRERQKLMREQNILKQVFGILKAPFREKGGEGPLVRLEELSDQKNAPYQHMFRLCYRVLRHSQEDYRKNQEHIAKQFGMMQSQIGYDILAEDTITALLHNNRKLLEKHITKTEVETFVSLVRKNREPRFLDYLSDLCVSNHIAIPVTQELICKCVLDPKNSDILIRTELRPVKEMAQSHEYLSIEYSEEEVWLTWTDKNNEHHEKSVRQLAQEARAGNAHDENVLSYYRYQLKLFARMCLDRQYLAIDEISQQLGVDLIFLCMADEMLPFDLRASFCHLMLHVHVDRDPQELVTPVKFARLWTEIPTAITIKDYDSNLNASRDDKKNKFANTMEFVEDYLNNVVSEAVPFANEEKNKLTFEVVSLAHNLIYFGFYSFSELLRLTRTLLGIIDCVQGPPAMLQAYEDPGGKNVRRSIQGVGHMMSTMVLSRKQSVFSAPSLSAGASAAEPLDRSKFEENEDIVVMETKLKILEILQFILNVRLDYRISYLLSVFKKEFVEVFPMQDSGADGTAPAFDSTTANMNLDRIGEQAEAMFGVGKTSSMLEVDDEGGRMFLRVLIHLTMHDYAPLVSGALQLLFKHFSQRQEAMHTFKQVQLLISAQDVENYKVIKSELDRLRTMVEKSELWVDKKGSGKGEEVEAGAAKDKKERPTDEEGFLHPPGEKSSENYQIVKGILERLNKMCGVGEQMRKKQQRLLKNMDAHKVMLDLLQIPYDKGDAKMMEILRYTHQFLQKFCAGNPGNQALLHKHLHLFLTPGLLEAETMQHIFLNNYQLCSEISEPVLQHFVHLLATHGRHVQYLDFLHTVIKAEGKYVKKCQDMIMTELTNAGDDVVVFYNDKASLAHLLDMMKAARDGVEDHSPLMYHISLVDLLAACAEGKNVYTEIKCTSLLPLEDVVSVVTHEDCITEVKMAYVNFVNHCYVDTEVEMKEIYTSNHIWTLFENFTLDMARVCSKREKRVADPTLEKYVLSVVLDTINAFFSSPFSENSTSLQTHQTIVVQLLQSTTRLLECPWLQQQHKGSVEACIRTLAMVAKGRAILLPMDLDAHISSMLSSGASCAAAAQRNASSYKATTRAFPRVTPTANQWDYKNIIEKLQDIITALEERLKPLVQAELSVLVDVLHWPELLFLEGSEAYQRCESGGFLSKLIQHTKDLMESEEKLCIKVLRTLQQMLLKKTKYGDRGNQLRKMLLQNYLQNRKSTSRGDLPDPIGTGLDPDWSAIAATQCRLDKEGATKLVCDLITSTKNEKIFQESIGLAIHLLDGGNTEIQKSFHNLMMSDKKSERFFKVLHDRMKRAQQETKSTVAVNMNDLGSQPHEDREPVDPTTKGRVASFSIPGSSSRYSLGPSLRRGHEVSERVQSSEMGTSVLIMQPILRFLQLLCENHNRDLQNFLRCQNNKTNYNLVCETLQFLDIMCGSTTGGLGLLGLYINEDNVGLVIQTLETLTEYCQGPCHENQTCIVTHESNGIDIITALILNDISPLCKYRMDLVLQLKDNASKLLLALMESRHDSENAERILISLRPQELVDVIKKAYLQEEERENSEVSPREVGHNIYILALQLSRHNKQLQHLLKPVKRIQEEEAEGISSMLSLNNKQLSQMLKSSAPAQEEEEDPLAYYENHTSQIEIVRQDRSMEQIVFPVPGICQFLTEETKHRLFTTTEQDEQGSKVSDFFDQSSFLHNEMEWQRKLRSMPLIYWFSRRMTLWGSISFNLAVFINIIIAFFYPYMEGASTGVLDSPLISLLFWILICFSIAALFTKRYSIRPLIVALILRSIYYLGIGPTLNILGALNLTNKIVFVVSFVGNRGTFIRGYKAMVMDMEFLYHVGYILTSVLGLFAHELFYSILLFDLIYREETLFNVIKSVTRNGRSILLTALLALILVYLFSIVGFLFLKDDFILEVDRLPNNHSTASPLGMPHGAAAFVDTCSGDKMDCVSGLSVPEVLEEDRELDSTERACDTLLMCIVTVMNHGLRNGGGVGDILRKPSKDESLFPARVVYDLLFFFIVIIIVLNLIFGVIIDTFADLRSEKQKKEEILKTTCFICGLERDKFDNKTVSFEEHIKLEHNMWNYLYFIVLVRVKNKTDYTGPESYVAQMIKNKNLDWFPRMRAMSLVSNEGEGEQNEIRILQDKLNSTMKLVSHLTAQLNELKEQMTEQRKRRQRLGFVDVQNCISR
UniProt Q86Y91: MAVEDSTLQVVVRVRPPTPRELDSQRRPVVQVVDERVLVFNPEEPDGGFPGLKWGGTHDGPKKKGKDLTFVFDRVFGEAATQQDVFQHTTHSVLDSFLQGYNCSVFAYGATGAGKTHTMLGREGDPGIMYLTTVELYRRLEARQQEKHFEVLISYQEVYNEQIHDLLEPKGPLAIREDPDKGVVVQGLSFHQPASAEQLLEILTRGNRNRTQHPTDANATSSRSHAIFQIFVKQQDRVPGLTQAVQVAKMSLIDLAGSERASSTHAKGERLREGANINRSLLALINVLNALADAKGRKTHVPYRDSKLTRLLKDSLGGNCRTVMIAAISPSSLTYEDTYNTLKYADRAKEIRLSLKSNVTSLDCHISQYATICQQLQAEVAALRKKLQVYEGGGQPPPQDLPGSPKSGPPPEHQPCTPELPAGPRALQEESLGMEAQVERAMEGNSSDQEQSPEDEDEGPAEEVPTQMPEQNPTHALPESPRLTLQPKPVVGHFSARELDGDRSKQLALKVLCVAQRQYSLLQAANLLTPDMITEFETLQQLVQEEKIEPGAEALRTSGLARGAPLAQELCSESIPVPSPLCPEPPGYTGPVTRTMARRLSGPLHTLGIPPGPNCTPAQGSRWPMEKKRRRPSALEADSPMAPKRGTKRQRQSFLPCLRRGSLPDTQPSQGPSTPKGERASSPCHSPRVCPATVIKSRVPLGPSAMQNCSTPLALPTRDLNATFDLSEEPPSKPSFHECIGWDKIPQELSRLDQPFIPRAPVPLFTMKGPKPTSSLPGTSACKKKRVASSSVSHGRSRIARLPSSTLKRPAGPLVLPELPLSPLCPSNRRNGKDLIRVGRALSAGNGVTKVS
UniProt Q7Z5Y7: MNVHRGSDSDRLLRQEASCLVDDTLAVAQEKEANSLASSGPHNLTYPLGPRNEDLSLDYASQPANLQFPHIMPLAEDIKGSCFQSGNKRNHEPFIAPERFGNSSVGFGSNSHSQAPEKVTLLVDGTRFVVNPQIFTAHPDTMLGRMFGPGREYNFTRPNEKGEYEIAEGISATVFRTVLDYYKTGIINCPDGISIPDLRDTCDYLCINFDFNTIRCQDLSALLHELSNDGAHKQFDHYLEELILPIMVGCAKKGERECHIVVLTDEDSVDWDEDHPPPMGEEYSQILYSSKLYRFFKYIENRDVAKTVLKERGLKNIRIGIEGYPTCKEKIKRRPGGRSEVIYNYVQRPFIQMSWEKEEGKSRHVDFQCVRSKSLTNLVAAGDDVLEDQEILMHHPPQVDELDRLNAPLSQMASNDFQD
UniProt P41229: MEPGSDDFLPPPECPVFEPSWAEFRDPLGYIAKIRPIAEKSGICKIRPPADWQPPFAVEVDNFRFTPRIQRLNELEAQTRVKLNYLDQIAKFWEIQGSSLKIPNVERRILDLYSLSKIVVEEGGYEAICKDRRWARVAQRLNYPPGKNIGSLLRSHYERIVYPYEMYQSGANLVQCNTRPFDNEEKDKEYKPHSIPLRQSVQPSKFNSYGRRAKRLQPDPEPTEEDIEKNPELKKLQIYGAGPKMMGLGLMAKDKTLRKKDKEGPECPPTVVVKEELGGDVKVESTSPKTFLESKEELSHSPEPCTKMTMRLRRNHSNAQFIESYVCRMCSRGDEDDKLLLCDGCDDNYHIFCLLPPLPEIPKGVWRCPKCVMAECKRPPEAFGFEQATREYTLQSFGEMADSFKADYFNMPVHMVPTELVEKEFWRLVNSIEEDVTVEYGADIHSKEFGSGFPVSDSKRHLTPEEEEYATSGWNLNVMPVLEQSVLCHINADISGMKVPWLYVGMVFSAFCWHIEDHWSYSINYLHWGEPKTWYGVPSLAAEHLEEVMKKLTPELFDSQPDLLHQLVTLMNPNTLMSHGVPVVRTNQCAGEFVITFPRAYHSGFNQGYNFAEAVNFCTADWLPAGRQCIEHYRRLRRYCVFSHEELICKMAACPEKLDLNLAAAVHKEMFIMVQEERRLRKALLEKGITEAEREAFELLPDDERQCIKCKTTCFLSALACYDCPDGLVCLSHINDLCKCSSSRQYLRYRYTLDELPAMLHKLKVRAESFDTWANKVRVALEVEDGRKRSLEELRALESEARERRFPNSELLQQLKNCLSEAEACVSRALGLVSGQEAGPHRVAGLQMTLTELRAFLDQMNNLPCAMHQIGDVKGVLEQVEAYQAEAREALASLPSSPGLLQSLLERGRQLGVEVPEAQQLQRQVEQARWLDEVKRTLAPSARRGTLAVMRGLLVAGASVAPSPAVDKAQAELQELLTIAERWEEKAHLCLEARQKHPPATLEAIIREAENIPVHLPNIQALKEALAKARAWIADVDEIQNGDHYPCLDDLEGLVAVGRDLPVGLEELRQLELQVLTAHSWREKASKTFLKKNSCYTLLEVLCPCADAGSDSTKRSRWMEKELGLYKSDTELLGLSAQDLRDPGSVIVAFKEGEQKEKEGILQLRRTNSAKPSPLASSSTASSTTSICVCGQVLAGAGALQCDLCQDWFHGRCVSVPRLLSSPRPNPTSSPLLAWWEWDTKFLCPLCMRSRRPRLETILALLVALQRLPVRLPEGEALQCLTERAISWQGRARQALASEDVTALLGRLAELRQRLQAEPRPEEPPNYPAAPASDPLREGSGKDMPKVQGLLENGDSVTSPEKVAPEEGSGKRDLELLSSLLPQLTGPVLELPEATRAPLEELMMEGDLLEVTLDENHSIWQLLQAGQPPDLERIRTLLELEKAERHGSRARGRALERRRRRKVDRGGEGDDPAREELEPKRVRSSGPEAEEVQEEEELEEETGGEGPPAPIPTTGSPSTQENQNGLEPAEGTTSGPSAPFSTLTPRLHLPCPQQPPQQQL

Legend:
[1] = compound: ClCC(=O)N[C@@H]1CCCc2ccccc12; assay: log2 mean competition ratio of IA-DTB cysteine labelling (DMSO/compound) (log2 ratio); higher = stronger cysteine engagement by compound; conditions: treatment time: 4 h, cell line lysate: HEK293T
Experimental: (§1)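 IA-DTB competitive cysteine chemoproteomics in HEK293T RIPA lysate. Lysates were treated with compound 29 or 30 at 50 or 200 µM for 4 h, then IA-DTB (500 µM, 1 h), trypsin-digested, NeutrAvidin-enriched and analysed by diaPASEF. Competition ratio = intensity DMSO / intensity compound (n=4 treated, n=64 DMSO); binding: mean log2 CR ≥ 1 and p ≤ 0.05 plus QC filters. Target is the cysteine site.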

[2] = compound: ClCC(=O)N[C@H]1CCCc2ccccc12; assay: as above; conditions: treatment time: 4 h, cell line lysate: HEK293T
Experimental: as §1

Row | Target | log2 mean competition ratio ([1]; 50 µM) | log2 mean competition ratio ([1]; 200 µM) | log2 mean competition ratio ([2]; 50 µM) | log2 mean competition ratio ([2]; 200 µM)
1 | ITGAV C172 (UniProt P06756) | 0.0336 | 0.241 | 0.13 | 0.302
2 | KIF20B C813 (UniProt Q96Q89) | -0.183 | -0.199 | -0.277 | 0.0637
3 | KIAA0100 C1979 (UniProt Q14667) | 0.175 | 0.0537 | -0.0776 | -0.0935
4 | KIF14 C1418 (UniProt Q15058) | 0.0532 | -0.292 | -0.0799 | 0.0246
5 | KIF4A C1171 (UniProt O95239) |  | 0.277 | 0.298 | 0.103
6 | IRF3 C222 (UniProt Q14653) | -0.293 | -0.0482 | -0.00278 | -0.107
7 | ITPR3 C2668 (UniProt Q14573) | 0.0578 | 0.13 | -0.0183 | -0.0155
8 | KDM8 C164 (UniProt Q8N371) | -0.176 | 0.107 | 0.0752 | 0.0835
9 | KIF4A C977 (UniProt O95239) | 0.242 | -0.222 | 0.333 | -0.105
10 | KIF2C C40 (UniProt Q99661) | -0.0576 | -0.161 | 0.292 | -0.128
11 | KIF18B C513 (UniProt Q86Y91) |  | 0.219 | 0.631 | 0.072
12 | KCTD20 C327 (UniProt Q7Z5Y7) |  | -0.0689 | -0.318 | -0.0969
13 | KIAA1586 C232 (UniProt Q9HCI6) | -0.114 | 0.112 | 0.0374 | 0.137
14 | JARID2 C1210 (UniProt Q92833) | -0.0478 | 0.149 | -0.167 | 0.0139
15 | KIAA1522 C804 (UniProt Q9P206) | -0.0835 | 0.469 | -0.174 | 0.391
16 | KIF20A C407 (UniProt O95235) | -0.0714 | -0.0159 | -0.285 | 0.0876
17 | KDM5C C707 (UniProt P41229) | -0.373 | 0.119 | -0.317 | 0.109
18 | ITPR3 C36 (UniProt Q14573) | 0.29 | -0.236 | -0.331 | -0.08
19 | KIF14 C47 (UniProt Q15058) |  | -0.522 |  | -0.00573
20 | KIF11 C43 (UniProt P52732) | -0.0392 | -0.00979 | 0.00301 | -0.066
21 | KIF24 C669 | 0.187 | -0.0531 | -0.105 | 0.017
22 | KIF20B C379 (UniProt Q96Q89) | -0.196 | -0.559 | -0.303 | -0.234

Quoted at random: 2 entries already listed.
Row | Target | log2 mean competition ratio ([1]; 50 µM) | log2 mean competition ratio ([1]; 200 µM) | log2 mean competition ratio ([2]; 50 µM) | log2 mean competition ratio ([2]; 200 µM)
21 | KIF24 C669 | 0.187 | -0.0531 | -0.105 | 0.017
11 | KIF18B C513 (UniProt Q86Y91) |  | 0.219 | 0.631 | 0.072
